Record: PubChem BioAssay AID1259254 (NCATS, 2017)

Test: 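Gene knock-downs that lead to re-replication, shown by excess G2 DNA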 (primary screen)
Cell system: human HCT116 colorectal cancer cells
Reagent: single siRNA against human genes
Duration: 3 days
Measured: 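Nuclei stained with Hoechst and imaged; cell-cycle phase assigned by DNA content; G2 share scaled per plate, non-targeting siRNA 0%, GMNN siRNA 100%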
Direction: G2 robust z-score: higher = more G2 cells, more excess DNA replication
Hit rule: 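Active siRNAs have a G2 robust z of 5 or more median absolute deviations over the median, which in these data means about 38% or higher of GMNN control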
Here is a random part of about 59,000 reagents tested. About 1,550 of all reagents (2.6%) were called active. 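G2 share is only a proxy for re-replication; each gene was hit by three separate siRNAs, and active genes were retested.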 Reagents against one gene are numbered here. Not all columns of the deposit are shown. The record does not give: the amount of reagent.

Silencing of CLTA #1 resulted in: G2 robust z-score 7.68; active.
After knock-down of CLTA #2 the results were G2 robust z-score -0.547; inactive.
CLTA #3 showed G2 robust z-score -0.881; inactive.
Against CRIPT #1, the entry reads G2 robust z-score 1.05; inactive.
Knock-down of CRIPT #2 came out at: G2 robust z-score 4.11; inactive.
Silencing of CRIPT #3 resulted in: G2 robust z-score -0.542; inactive.
PALB2 #1 gave G2 robust z-score -0.156; inactive.
Silencing of PALB2 #2 resulted in: G2 robust z-score -0.654; inactive.
Against PALB2 #3, the values are G2 robust z-score -0.484; inactive.
Depletion of HNRNPA1P8 #1 resulted in: G2 robust z-score -0.231; inactive.
Depletion of HNRNPA1P8 #2 came out at: G2 robust z-score -1.03; inactive.
HNRNPA1P8 #3 gave G2 robust z-score -0.273; inactive.
Knock-down of DGLUCY #1 resulted in: G2 robust z-score 0.332; inactive.
Against DGLUCY #2 the deposit lists G2 robust z-score 1.54; inactive.
Against DGLUCY #3, the entry reads G2 robust z-score 3.49; inactive.
Against LACTB2 #1, the entry reads G2 robust z-score 0.78; inactive.
For LACTB2 #2, the values are G2 robust z-score 0.991; inactive.
Knock-down of LACTB2 #3 resulted in: G2 robust z-score 5.03; active.

Entries listed so far whose gene name starts with H or h:
HNRNPA1P8 #1 | G2 robust z-score: -0.231; outcome: inactive
HNRNPA1P8 #2 | G2 robust z-score: -1.03; outcome: inactive
HNRNPA1P8 #3 | G2 robust z-score: -0.273; outcome: inactive
